# Assay results: PubChem BioAssay AID1347075 (National Center for Advancing Translational Sciences (NCATS), 2019)
# Screen size: about 400,000 compounds; about 5,500 (1.4%) were called active. This list was built around the results that the source calls inconclusive (neither active nor inactive); the mix of calls is not that of the screen. The call rests on the fitted dose curve; in most records, active means well fitted cell-killing curve with a large enough effect; inconclusive means small, poorly fitted or top-dose-only effect, or effect the other way; inactive means flat fitted curve, though single readings scatter. Potencies beside an inconclusive call are fits to weak or partial responses and may not hold up.
# Experiment: qHTS assay for MDR1-selective chemotherapeutics: Primary screen using the parental adenocarcinoma cell KB-3-1; further: nearly all actives have a fitted effect of over 60% in size
# Conditions: KB-3-1 viability, CellTiter-Glo ATP luminescence, 72 h; activity change, negative = cytotoxic: at 46.1 µM (top of the series)
# Procedure, shortened: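 Parental KB-3-1 viability, qHTS format: 72 h compound exposure, 37 °C; CellTiter-Glo; media-only wells and DMSO plates as controls; concentration-effect fits on corrected data.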
# On the % scale 0 is the no-effect control and ±100 the full control effect; potency means the concentration at half of the fitted maximal effect.
Compound,Potency,"activity change, negative = cytotoxic"
COc1ccc(CCNC(=O)C2CCN(S(=O)(=O)N3CCC(C)CC3)CC2)cc1OC,"inconclusive: 18.4 µM [cytotoxic, single point]",–
COc1ccc(NCc2cc3cc4c(cc3n(CC(=O)Nc3cc(C)ccc3C)c2=O)OCCO4)cc1,"inconclusive: 23.1 µM [cytotoxic, single point]",–
COc1ccc(NC(=O)N(C)[C@H]2C[C@H]3c4[nH]c5ccc(-c6ccc(OC)cc6)cc5c4CCN3C[C@H]2[C@H](C)O)cc1,active: 20.6 µM,–
Cc1onc(-c2ccccc2)c1C(=O)NC1CCC(C)CC1 (stereo unspecified),–,inconclusive: -3.26%
O=C(O)C1CC(=O)N(c2ccc3c(c2)OCCO3)C1 (stereo unspecified),"inconclusive: 18.4 µM [cytotoxic, single point]",–
NS(=O)(=O)c1ccc(NC(=O)Nc2ccc(S(N)(=O)=O)cc2)cc1,"inconclusive: 29.1 µM [cytotoxic, single point]",–
CN1CCN(C(=O)c2ccc3c(=O)n(Cc4ccc(Cl)cc4)c(=S)[nH]c3c2)CC1,inactive,–
OC(COCc1ccc(Cl)cc1)CN1CCN(CC(O)COCc2ccc(Cl)cc2)CC1 (stereo unspecified),"inconclusive: 16.4 µM [cytotoxic, single point]",–
O=C(COc1ccccc1)NCC(=O)Nc1cccc2ccccc12,"inconclusive: 9.2 µM [rising, partial curve]",–
Cc1ccc(S(=O)(=O)N2CCCCC2)cc1NC(=O)c1ccncc1,inactive,–
COc1ccc(-c2coc3c(C(=O)NCC(C)C)cccc23)c(C)c1,"inconclusive: 29.1 µM [cytotoxic, single point]",–
CCCSc1ccc([C@@H]2[C@H]3C(=O)N(CC)C(=O)[C@H]3[C@]3(C(=O)OC)CCCCN23)cc1,"inconclusive: 29.1 µM [cytotoxic, single point]",–
O=C(CN1CCC(c2nc3ccccc3[nH]2)CC1)Nc1ccc2c(c1)OCO2,"inconclusive: 23.1 µM [cytotoxic, partial curve, poor fit]",–
CCOC(=O)c1c(-c2ccc(OC)cc2)oc2ccc(OCc3ccc(Br)cc3)cc12,inactive,–
COc1ccc([C@H]2N[C@]3(CCCN(Cc4ccc(F)cc4)C3=O)[C@H]3C(=O)N(C)C(=O)[C@@H]23)cc1,inactive,–
COc1ccccc1-c1cc(C(=O)Nc2cc(C)nn2-c2ccccc2)no1,active: 5.17 µM,–
Cn1nc(-c2ccc(Cl)cc2)c2cc(C(=O)NCc3ccco3)sc21,"inconclusive: 18.4 µM [cytotoxic, single point]",–
CCc1ccccc1NC(=O)c1ccc2nc(C(C)C)oc2c1,"inconclusive: 23.1 µM [cytotoxic, single point]",–
CC1(C(=O)Nc2cnc3ccccc3c2)CCN1C(=O)c1ccccc1CCc1ccccc1 (stereo unspecified),"inconclusive: 29.1 µM [cytotoxic, single point]",–
COc1ccc(Nc2oc(-c3ccccc3Cl)nc2C#N)cc1,"inconclusive: 0.461 µM [cytotoxic, partial curve, poor fit]",–
C/C(=N\Nc1ncc(Cl)cc1Cl)c1ccc(S(=O)(=O)NCc2ccco2)cc1,"inconclusive: 7.31 µM [cytotoxic, partial curve, poor fit]",–
Cc1ccc(C)c(/C=N/Nc2ccccn2)c1,inactive,–
Cc1nc2ccccc2c2oc(C(=O)NCCN3CCCCC3C)cc12 (stereo unspecified),"inconclusive: 20.6 µM [cytotoxic, single point]",–
c1ccc(Cc2nn3c(COc4ccccc4)nnc3s2)cc1,inactive,–

# Some values from the results shown:
# Potency with `O=C(COc1ccccc1)NCC(=O)Nc1cccc2ccccc12` is entered as inconclusive: 9.2 µM [rising, partial curve]
# Potency with `CCCSc1ccc([C@@H]2[C@H]3C(=O)N(CC)C(=O)[C@H]3[C@]3(C(=O)OC)CCCCN23)cc1` is entered as inconclusive: 29.1 µM [cytotoxic, single point]
# Potency with `C/C(=N\Nc1ncc(Cl)cc1Cl)c1ccc(S(=O)(=O)NCc2ccco2)cc1` is entered as inconclusive: 7.31 µM [cytotoxic, partial curve, poor fit]
# Potency with `CCOC(=O)c1c(-c2ccc(OC)cc2)oc2ccc(OCc3ccc(Br)cc3)cc12` is entered as inactive
# activity change, negative = cytotoxic with `Cc1onc(-c2ccccc2)c1C(=O)NC1CCC(C)CC1` (stereo unspecified) is entered as inconclusive: -3.26%

# Later entries

Compound,Potency,"activity change, negative = cytotoxic"
O=C(c1ccc(-c2nnc(-c3ccccc3)o2)cc1)N1CCCCCC1,"inconclusive: 25.1 µM [cytotoxic, single point]",–
COc1ccccc1CNS(=O)(=O)c1cc(C(=O)N(C)Cc2cccnc2)c(Cl)cc1Cl,"inconclusive: 13 µM [cytotoxic, partial curve]",–
COC(=O)c1ccc(SCC(=O)N2CCC(C)CC2)c([N+](=O)[O-])c1,inactive,–
O=C(Oc1ccc2c(c1)OCC2=O)c1ccc(Cl)cc1,inactive,–
COCCNc1ncnc2c1[nH]c1ccccc12,inactive,–
Cn1nc(C(F)(F)F)c(/C=N/OC(=O)c2ccccc2)c1SCc1ccc(Cl)cc1,inactive,–
Cc1ccc(N(C)C(=O)c2cc(S(=O)(=O)N3CCc4ccccc43)cn2C)cc1,"inconclusive: 32.6 µM [cytotoxic, single point]",–
CCCn1c(SCC(=O)N(C)C2CCCCC2)n[nH]c1=O,inactive,–
CCN(CC)c1ccc(CNc2ccc3c(c2)ncn3CC)cc1,"inconclusive: 6.51 µM [rising, partial curve]",–
S=C(NCC1CCCO1)N1CCN(c2nc(-c3ccccc3)cs2)CC1 (stereo unspecified),"inconclusive: 25.9 µM [cytotoxic, single point]",–
CCn1c(C(=O)Nc2ccsc2C(=O)OC)cc2sc(Cl)cc21,–,inconclusive: 32.1%
CCCN(CCC)C(=O)C1c2ccccc2Oc2ccccc21,"inconclusive: 14.6 µM [cytotoxic, partial curve, poor fit]",–
O=C1NC2=C(C(=O)CCC2)C(c2ccc([N+](=O)[O-])cc2)N1 (stereo unspecified),inactive,–
C=CCn1c(SCC(=O)NCc2ccco2)nnc1-c1cccc(N(C)C)c1,"inconclusive: 14.6 µM [rising, single point]",–
O=C1OC(Nc2ccc3c(c2)OCO3)c2ccccc21 (stereo unspecified),"inconclusive: 35.5 µM [cytotoxic, single point]",–
CN(C)c1ccc(/C=N/N=C(N)N)cc1[N+](=O)[O-],"inconclusive: 23.1 µM [cytotoxic, partial curve]",–
Cc1ccc(N=Nc2ccc(O)c3ncccc23)cc1,"inconclusive: 2.91 µM [cytotoxic, partial curve, poor fit]",–
COCC(=O)N1CCCc2ccccc21,inactive,–
CCCNc1nc2c(c(=O)n(C)c(=O)n2C)n1Cc1cccc(C)c1,"inconclusive: 11.6 µM [cytotoxic, partial curve, poor fit]",–
CC1(C)CC(=O)C2=C(C1)N=C1c3ccccc3C(=O)C1C2c1ccc(Cl)cc1 (stereo unspecified),"inconclusive: 18.4 µM [cytotoxic, single point]",–
CCn1ncc(Br)c1C(=O)Nc1cc([N+](=O)[O-])ccc1C,"inconclusive: 29.1 µM [rising, single point]",–
CC(C)c1ccc(OCCCCN2CCCCC2)cc1,"inconclusive: 32.6 µM [cytotoxic, single point]",–
Cc1ccc(Cl)cc1NC(=O)c1ccc(-c2nc(CSc3ccccc3)c(C)o2)cc1,"inconclusive: 32.6 µM [cytotoxic, partial curve, poor fit]",–
COc1cc(CNC(=O)Nc2nc(C(N)Cc3ccc(Cl)cc3)cs2)cc(OC)c1OC (stereo unspecified),"inconclusive: 29.1 µM [cytotoxic, single point]",–

Compound,Potency,"activity change, negative = cytotoxic"
COc1ccc(Cn2c(C3CC3)nc3ccc(NC(=O)C4CC4)cc3c2=O)cc1,"inconclusive: 29.1 µM [cytotoxic, single point]",–
CCCCCn1c(=NC(=O)c2ccco2)c(C(=O)OCC)cc2c(=O)n3ccccc3nc21,inactive,–
NC(=O)c1cn(-c2ccccc2)nc1-c1cc2ccccc2oc1=O,inactive,–
CCCC(C)NC1=NCCCCC1 (stereo unspecified),–,inconclusive: 32.9%
COc1cc(C(=O)O)ccc1Cl,"inconclusive: 29.1 µM [cytotoxic, single point]",–
CN1CCN(C(=O)C2=C[C@@H](c3ccccc3)C[C@@H](OCc3ccc(CO)cc3)O2)CC1,"inconclusive: 29.1 µM [cytotoxic, single point]",–
CC1C(=O)NC(=O)C1c1ccccc1 (stereo unspecified),"inconclusive: 8.2 µM [rising, partial curve]",–
COc1cc(NC(=O)c2cccs2)c(C(=O)OCC(=O)NC(=O)NCc2ccccc2)cc1OC,inactive,–
COc1ccc(NC(=O)c2ccc3c(c2)C(=O)N(CC2CCCO2)C3=O)cc1 (stereo unspecified),"inconclusive: 29.1 µM [rising, single point]",–
OC(c1ccc(F)c(F)c1)c1nc(-c2ccc3ccccc3c2)cs1 (stereo unspecified),inactive,–
Cc1ncc(CO)c(/C=N/NC(=O)c2cccc(S(=O)(=O)N3CCCC3)c2)c1O,"inconclusive: 29.1 µM [cytotoxic, single point]",–
O=C(CSc1ccc2nnc(-c3cccnc3)n2n1)Nc1ccccc1F,inactive,–
Clc1ccc2nc(-c3ccccc3)nc(C(Cl)Cl)c2c1,active: 3.26 µM,–
O=S(=O)(NCCc1csc(-c2ccc(F)cc2)n1)c1ccc(Cl)cc1,"inconclusive: 32.6 µM [cytotoxic, single point]",–
Cc1ccc(S(=O)(=O)N(C)C)cc1NC(=O)CN1C(=O)NC2(CCc3ccccc32)C1=O (stereo unspecified),"inconclusive: 8.2 µM [rising, partial curve, poor fit]",–
COCC(=O)N/N=C\c1ccccc1OC/C=C/c1ccccc1,"inconclusive: 29.1 µM [cytotoxic, single point]",–
Cc1ccsc1C(=O)OCC(=O)NCCNC(=O)COC(=O)c1sccc1C,inactive,–
COc1ccc(-c2cnc(C)o2)cc1S(=O)(=O)Nc1ccc(C)c(F)c1,active: 5.8 µM,–
Cc1cccc(NS(=O)(=O)c2ccc(C(=O)N3CCN(c4ccccc4O)CC3)cc2)c1C,"inconclusive: 18.4 µM [cytotoxic, single point]",–
CCCCOC(=O)NC1CCc2cc(OC)c(OC)c(OC)c2-c2ccc(SC)c(=O)cc21 (stereo unspecified),active: 0.146 µM,–
O=C(O)/C=C1\NC(=O)c2ccccc21,inactive,–
Clc1ccc2nc(-c3ccccn3)c(Nc3ccc4c(c3)OCO4)n2c1,"inconclusive: 23.1 µM [cytotoxic, single point]",–
CN1CCN(CC(=O)N2c3ccccc3C(C)(c3ccccc3)CC2(C)C)CC1 (stereo unspecified),"inconclusive: 23.1 µM [cytotoxic, single point]",–
